Test results published in patent US20220296674A1, “CELL PENETRATING PEPTIDES FOR INTRACELLULAR DELIVERY OF MOLECULES” (INSERM (INSTITUT NATIONAL DE LA SANTÉ ET DE LA RECHERCHE …, priority 2019, published 2022).
Part of at least one peptide drawing is inferred or uncertain, most often the ends. Where no end group is shown, it is not given here.

Tested on: HUT78 Sézary cell line xenograft tumors
Test: Xenograft tumor model of Sézary syndrome
Assay type: in vivo
Settings: 5 mg/kg daily i.p.; for tumor growth reduction compared to control mice: calipered tumors
Description: FIG. 8 RT33 and RT33DR inhibit tumor growth in vivo in a mouse model for the Sézary syndrome. (A) Mice were engrafted subcutaneously with HUT78 Sézary cell line. Animals with preexisting tumors were treated daily with i.p. injections of RT33 or RT33DRM in normal saline (5 mg/kg) or normal saline as control. Tumors were calipered throughout the study and data were plotted as means±s.e.m. (n=7 mice per group). p<0.005 relative to control. Subsequently, tumors were excised, stripped of non-tumor tissue and tumors volumes were calculated. (B) Representative pictures of H&E staining of tumors treated with RT33, RT33DRM, or normal saline. The scale bar represents 500 μm.
Animal experiments were approved by The University Board Ethics Committee for Experimental Animal Studies (#2303.01). Xenograft tumors were obtained by subcutaneous injection of 10^6 HUT78 cells in the right flank of 8-week-old female NOD-SCID-gamma (NSG) mice, bred and housed under pathogen-free conditions at our animal facility (IUH, Saint Louis Hospital, Paris, France). Treatment started after randomization when tumors were visible and consisted of daily intraperitoneal (i.p.) injection of normal saline or RT33 or RT33DR in normal saline (n=5 per group). Tumor volume was measured every other day and calculated as: long axis X short axis^2 ×0.5. Animals were euthanized after 21 days of treatment or when tumor size reached the ethical end point and visceral organs were excised for a gross pathological examination. Tumors were fixed in 4% neutral buffered formalin and embedded in paraffin. Sections (4 μm) were stained with hematoxylin-eosin (H&E) and subjected to microscopic analysis.

In the case of “RSRSRRRRRKLQYFARGLQVYIRQLRLALQGKT [RT33DR]”, the “tumor growth reduction compared to control mice” value is reported as roughly 60% and the “decrease of total tumor volume (excised tumors, ex vivo) versus control mice, in words” value (study end point) is reported as “more than two fold”.
“RSRSRDRRRKLQYFARGLQVYIRQLRLALQGKT [RT33]” was tested, and the “tumor growth reduction compared to control mice” value was roughly 66% and the “decrease of total tumor volume (excised tumors, ex vivo) versus control mice” value (study end point) was “more than 2.6 times”.
